Data reported in the supplement of paper PMC10849652.
The list shows a part of the results.

By UniProt entry, the sequences of proteins in these tests, tags left out. Where a name states a change or a piece, a line headed by the entry shows the natural chain unless it says otherwise.
UniProt O14763, whole entry, looked up: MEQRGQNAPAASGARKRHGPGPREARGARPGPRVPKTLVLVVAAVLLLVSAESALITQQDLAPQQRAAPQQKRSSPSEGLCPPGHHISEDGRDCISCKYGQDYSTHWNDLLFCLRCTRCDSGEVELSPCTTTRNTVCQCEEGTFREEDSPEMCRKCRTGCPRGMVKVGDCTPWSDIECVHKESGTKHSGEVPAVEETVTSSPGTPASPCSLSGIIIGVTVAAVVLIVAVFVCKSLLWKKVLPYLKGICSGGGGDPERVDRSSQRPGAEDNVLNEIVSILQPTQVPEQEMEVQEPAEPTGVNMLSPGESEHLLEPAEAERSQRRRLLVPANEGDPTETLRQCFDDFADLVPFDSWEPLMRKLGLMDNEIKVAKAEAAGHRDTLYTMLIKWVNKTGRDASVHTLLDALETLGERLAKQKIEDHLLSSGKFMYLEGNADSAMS
UniProt Q4ZIN3: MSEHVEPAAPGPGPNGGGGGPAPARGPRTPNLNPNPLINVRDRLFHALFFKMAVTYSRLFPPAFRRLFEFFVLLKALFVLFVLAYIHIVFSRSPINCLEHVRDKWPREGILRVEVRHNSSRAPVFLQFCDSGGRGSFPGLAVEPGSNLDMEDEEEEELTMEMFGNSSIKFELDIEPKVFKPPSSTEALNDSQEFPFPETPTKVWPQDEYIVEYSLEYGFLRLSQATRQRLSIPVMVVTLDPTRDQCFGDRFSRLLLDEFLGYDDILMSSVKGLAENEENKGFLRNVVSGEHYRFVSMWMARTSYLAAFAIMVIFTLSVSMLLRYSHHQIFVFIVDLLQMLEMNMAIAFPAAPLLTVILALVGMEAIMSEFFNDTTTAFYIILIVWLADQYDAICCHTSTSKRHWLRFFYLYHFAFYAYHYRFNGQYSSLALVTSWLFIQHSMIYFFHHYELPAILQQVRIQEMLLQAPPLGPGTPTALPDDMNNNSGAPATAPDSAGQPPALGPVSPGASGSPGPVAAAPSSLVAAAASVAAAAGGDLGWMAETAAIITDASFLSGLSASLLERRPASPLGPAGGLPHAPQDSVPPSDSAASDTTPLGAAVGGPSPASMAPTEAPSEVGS
UniProt Q9NQ34: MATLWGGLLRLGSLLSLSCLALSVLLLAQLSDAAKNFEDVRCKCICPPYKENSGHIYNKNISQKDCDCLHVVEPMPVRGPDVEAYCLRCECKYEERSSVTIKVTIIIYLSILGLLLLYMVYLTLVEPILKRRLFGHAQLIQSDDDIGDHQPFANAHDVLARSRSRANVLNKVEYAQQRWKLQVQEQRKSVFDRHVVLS
UniProt Q9NXH8: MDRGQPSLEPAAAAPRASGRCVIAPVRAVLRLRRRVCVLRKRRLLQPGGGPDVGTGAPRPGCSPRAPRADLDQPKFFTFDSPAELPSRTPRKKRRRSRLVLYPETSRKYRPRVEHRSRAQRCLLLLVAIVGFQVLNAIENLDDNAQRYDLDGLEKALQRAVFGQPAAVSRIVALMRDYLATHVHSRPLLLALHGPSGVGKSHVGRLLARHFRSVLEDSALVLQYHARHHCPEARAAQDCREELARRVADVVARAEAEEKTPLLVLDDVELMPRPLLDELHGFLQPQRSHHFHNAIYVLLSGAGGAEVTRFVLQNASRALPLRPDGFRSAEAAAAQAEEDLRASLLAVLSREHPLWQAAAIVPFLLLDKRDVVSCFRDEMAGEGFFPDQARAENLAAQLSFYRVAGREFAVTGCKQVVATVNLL
UniProt O00220, whole entry, looked up: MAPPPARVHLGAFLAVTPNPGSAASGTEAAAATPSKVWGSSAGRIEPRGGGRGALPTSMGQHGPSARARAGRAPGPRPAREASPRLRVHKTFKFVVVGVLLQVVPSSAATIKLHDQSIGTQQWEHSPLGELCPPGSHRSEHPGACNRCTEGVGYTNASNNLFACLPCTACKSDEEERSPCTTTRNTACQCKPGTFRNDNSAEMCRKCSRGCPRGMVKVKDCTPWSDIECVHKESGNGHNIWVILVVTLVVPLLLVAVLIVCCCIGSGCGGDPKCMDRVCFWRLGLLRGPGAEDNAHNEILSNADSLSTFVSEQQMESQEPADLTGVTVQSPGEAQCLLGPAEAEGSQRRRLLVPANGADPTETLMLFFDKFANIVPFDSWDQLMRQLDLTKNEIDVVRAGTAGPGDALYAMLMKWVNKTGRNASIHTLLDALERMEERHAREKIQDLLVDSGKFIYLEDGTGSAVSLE
UniProt Q6NUQ4: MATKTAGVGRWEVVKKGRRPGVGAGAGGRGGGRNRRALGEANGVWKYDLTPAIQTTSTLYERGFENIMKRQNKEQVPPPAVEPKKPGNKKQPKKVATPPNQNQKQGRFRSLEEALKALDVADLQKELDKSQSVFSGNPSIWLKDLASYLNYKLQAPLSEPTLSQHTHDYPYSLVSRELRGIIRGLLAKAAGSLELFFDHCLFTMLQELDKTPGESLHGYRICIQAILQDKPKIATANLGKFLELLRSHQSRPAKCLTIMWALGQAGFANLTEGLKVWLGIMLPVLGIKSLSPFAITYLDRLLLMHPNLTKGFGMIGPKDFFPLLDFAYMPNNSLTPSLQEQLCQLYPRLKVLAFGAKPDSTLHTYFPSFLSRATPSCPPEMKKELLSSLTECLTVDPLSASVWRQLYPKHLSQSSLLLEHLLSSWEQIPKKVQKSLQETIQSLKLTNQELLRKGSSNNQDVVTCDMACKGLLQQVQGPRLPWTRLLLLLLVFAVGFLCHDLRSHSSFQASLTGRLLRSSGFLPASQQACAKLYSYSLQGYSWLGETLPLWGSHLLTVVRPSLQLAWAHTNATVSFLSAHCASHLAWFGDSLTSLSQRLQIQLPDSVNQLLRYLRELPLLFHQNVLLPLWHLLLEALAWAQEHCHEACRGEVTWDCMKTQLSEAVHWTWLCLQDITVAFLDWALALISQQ
UniProt Q9NVH6: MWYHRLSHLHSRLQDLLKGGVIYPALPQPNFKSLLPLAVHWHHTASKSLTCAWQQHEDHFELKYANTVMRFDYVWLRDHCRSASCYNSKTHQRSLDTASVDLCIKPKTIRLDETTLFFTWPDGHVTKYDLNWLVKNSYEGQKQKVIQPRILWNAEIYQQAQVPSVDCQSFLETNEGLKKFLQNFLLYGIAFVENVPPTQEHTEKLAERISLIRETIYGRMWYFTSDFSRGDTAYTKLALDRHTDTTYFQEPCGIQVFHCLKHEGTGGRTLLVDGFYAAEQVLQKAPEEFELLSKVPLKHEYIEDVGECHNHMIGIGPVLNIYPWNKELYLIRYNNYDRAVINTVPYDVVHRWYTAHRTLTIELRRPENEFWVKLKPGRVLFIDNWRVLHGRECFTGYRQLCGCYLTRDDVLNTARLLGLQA
UniProt P13693: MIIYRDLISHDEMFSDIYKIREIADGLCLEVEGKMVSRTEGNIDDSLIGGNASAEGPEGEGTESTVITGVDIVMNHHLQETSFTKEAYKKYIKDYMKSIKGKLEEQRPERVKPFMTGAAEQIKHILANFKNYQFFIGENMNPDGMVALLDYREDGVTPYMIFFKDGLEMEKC
UniProt Q92973: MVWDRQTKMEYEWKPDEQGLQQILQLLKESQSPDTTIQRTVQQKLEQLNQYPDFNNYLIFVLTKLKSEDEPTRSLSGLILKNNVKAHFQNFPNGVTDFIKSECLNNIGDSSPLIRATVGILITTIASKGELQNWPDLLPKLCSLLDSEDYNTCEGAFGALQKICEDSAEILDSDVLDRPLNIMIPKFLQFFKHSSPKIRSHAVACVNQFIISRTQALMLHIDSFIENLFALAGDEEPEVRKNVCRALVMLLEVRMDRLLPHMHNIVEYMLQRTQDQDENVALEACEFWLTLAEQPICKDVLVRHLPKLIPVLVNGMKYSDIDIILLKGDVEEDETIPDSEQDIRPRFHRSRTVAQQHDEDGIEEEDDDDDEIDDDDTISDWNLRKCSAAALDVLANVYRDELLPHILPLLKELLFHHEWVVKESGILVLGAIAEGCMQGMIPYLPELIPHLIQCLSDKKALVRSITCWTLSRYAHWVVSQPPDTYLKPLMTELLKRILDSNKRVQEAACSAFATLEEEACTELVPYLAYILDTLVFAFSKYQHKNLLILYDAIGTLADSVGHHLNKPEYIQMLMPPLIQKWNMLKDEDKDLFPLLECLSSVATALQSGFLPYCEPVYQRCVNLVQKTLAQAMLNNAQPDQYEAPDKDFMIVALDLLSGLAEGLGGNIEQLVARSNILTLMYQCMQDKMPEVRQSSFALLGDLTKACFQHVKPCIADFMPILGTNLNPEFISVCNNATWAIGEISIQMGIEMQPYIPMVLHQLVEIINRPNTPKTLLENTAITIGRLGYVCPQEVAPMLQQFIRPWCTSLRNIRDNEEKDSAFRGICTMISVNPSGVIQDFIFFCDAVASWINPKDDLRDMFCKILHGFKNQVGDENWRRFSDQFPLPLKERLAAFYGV
UniProt O14656: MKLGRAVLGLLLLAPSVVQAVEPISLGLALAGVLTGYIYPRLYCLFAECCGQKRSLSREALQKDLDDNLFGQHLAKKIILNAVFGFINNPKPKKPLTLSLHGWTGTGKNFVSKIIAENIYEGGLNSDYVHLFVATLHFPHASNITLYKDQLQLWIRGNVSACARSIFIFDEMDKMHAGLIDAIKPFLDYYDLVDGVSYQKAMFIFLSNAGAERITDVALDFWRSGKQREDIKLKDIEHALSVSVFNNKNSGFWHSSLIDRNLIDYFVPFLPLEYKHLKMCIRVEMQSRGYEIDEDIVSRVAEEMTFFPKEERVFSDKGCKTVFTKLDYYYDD
UniProt Q8NBN3: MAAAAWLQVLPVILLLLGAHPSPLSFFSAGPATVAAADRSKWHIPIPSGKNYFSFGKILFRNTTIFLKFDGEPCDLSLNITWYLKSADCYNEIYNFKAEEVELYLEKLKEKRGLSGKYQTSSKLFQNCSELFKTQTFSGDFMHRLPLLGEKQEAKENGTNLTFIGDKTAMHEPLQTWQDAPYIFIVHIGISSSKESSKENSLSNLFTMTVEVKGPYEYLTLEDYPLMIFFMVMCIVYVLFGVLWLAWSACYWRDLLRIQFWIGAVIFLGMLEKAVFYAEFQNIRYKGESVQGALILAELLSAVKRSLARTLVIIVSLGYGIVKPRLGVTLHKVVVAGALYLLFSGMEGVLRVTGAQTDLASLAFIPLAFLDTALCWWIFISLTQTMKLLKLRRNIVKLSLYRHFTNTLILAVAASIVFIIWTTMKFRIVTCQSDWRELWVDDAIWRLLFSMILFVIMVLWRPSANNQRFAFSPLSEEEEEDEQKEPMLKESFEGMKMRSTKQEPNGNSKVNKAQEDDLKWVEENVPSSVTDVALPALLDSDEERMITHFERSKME
UniProt Q96HV5: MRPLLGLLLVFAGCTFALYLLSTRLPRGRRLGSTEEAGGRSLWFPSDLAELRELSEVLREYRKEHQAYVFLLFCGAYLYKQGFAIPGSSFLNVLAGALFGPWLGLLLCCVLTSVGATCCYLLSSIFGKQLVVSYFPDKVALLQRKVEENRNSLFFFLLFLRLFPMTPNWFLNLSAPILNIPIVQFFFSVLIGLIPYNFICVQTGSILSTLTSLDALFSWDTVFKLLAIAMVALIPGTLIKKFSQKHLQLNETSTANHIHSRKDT
UniProt Q9Y5L0: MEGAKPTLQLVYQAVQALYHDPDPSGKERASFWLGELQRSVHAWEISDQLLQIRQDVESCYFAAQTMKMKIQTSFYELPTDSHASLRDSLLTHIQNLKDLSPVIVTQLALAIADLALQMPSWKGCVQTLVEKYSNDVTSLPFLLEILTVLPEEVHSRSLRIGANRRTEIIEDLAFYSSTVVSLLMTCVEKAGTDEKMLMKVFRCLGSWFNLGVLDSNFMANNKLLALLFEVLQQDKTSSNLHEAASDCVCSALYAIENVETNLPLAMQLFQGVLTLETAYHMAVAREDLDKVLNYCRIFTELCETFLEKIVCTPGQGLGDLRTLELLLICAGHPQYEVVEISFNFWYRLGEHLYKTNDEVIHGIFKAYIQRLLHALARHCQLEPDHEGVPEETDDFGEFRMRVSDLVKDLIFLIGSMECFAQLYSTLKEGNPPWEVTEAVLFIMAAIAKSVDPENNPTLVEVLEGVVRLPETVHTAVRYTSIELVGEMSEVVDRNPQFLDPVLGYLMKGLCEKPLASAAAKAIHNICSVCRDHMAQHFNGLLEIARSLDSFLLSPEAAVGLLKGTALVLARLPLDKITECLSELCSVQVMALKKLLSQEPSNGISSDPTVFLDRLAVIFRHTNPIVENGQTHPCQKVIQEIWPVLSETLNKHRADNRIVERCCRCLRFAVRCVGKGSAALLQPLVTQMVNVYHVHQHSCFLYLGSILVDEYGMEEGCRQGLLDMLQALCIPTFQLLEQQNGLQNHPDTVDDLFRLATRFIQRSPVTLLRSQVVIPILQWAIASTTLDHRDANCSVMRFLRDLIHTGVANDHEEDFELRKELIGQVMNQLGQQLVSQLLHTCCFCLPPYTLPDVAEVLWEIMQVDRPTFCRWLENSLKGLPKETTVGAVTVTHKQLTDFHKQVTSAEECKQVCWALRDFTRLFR

Columns and labels:
Test in all cases: log2 fold change, soluble protein after heating vs DMSO (PISA); higher = thermal stabilisation; K562 lysate, 10 uM; active = over 0.2 and 3.5 SD of the protein, either way, in both replicates (recomputed)
vemurafenib = compound: CCCS(=O)(=O)Nc1ccc(F)c(C(=O)c2c[nH]c3ncc(-c4ccc(Cl)cc4)cc23)c1F [vemurafenib]
In short: (§1)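 Thermal stability, expressed as log-two fold change relative to solvent controls, is given from duplicates. Crude K562 extract in PBS pH 7.4 with 1 mM MgCl2, at 1 mg/mL protein, was treated with 10 μM compound for 30 min and heated in aliquots for 3 min across 48°C-58°C. After pooling, adjustment to 0.5% NP-40 at 4°C and centrifugation at 21,000xg for 90 min, supernatant protein was measured by TMTpro 16plex LC-MS/MS with channel sums equalised.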

[1] = compound: CCCS(=O)(=O)Nc1ccc(F)c(C(=O)c2c[nH]c3ncc(Cl)cc23)c1F
In short: as §1

barasertib = compound: CCN(CCCOc1ccc2c(Nc3cc(CC(=O)Nc4cccc(F)c4)[nH]n3)ncnc2c1)CCOP(=O)(O)O [barasertib]
In short: as §1

[2] = compound: CC[C@@H]1C(=O)N(C)c2cnc(Nc3ccc(C(=O)NC4CCN(C)CC4)cc3OC)nc2N1C1CCCC1
In short: as §1

volasertib = compound: CC[C@@H]1C(=O)N(C)c2cnc(Nc3ccc(C(=O)N[C@H]4CC[C@H](N5CCN(CC6CC6)CC5)CC4)cc3OC)nc2N1C(C)C [volasertib]
In short: as §1

[3] = compound: CCn1c(C(=O)N(C2CC2)C2CC2)cc2c3c(ncn3C)c(Nc3cc(C)n(C)n3)nc21
In short: as §1

[4] = compound: CCn1cc(-c2ccnc3[nH]c(-c4cccc(CN(C)C)c4)cc23)c(-c2ccc(NC(=O)N(C)C)cc2)n1
In short: as §1

[5] = compound: CN1CCC(CNc2ccc3ncc(-c4cccc(OC(F)(F)F)c4)n3n2)CC1
In short: as §1

saracatinib = compound: CN1CCN(CCOc2cc(OC3CCOCC3)c3c(Nc4c(Cl)ccc5c4OCO5)ncnc3c2)CC1 [saracatinib]
In short: as §1

sotrastaurin = compound: CN1CCN(c2nc(C3=C(c4c[nH]c5ccccc45)C(=O)NC3=O)c3ccccc3n2)CC1 [sotrastaurin]
In short: as §1

alvocidib = compound: CN1CC[C@H](c2c(O)cc(O)c3c(=O)cc(-c4ccccc4Cl)oc23)[C@H](O)C1 [alvocidib]
In short: as §1

Tubastatin A = compound: CN1CCc2c(c3ccccc3n2Cc2ccc(C(=O)NO)cc2)C1 [Tubastatin A]
In short: as §1

[6] = compound: CNC(=O)C1=CC=CC=C1NC2=NC(=NC=C2Cl)NC3=C(C=C(C=C3)N4CCOCC4)OC
In short: as §1

defactinib = compound: CNC(=O)c1ccc(Nc2ncc(C(F)(F)F)c(NCc3nccnc3N(C)S(C)(=O)=O)n2)cc1 [defactinib]
In short: as §1

[7] = compound: CNc1nc(-c2ccc3c(N)n[nH]c3c2)cc(N2C[C@@H](C(=O)NC3CCCCC3)CC[C@H]2C)n1
In short: as §1

encorafenib = compound: COC(=O)N[C@@H](C)CNc1nccc(-c2cn(C(C)C)nc2-c2cc(Cl)cc(NS(C)(=O)=O)c2F)n1 [encorafenib]
In short: as §1

[8] = compound: COC(=O)[C@H](CCSC)NC(=O)C1=C(C=C(C=C1)NC[C@H](CS)N)C2=CC=CC=C2
In short: as §1

alisertib = compound: COc1cc(Nc2ncc3c(n2)-c2ccc(Cl)cc2C(c2c(F)cccc2OC)=NC3)ccc1C(=O)O [alisertib]
In short: as §1

[9] = compound: COc1cc2nc(-c3cc(F)ccc3O)nc(N[C@@H]3CNC[C@H]3C(C)(C)O)c2cc1OC
In short: as §1

gefitinib = compound: COc1cc2ncnc(Nc3ccc(F)c(Cl)c3)c2cc1OCCCN1CCOCC1 [gefitinib]
In short: as §1

Measured: log2 fold change

TNFRSF10B (UniProt O14763)
inactive: vemurafenib 0.066 | [1] -0.006 | barasertib 0.004 | [2] 0.018 | volasertib 0.051 | [3] 0.051 | [4] -0.015 | [5] 0.033 | saracatinib 0.034 | sotrastaurin -0.026 | alvocidib 0.038 | Tubastatin A 0.038 | [6] 0.031 | defactinib 0.007 | [7] 0.023 | encorafenib 0.01 | [8] -0.041 | alisertib 0.01 | [9] -0.077 | gefitinib -0.006

TMEM259 (UniProt Q4ZIN3)
inactive: vemurafenib -0.016 | [1] -0.009 | barasertib 0.028 | [2] -0.027 | volasertib 0.028 | [3] 0.087 | [4] 1.04 | [5] -0.03 | saracatinib -0.004 | sotrastaurin 0.03 | alvocidib 0.007 | Tubastatin A -0.001 | [6] 0.018 | defactinib 0.051 | [7] 0.055 | encorafenib 0.088 | [8] -0.021 | alisertib -0.023 | [9] 0.029 | gefitinib -0.017

TMEM9B (UniProt Q9NQ34)
inactive: vemurafenib -0.034 | [1] 0.008 | barasertib 0.075 | [2] 0 | volasertib 0.079 | [3] 0.143 | [4] 0.146 | [5] -0.052 | saracatinib 0.032 | sotrastaurin -0.003 | alvocidib 0.102 | Tubastatin A -0.075 | [6] -0.042 | defactinib 0.139 | [7] -0.077 | encorafenib 0.158 | [8] 0.055 | alisertib 0.034 | [9] 0.067 | gefitinib -0.007

TOR4A (UniProt Q9NXH8)
inactive: vemurafenib -0.041 | [1] -0.015 | barasertib 0.001 | [2] 0.09 | volasertib -0.031 | [3] 0.042 | [4] -0.031 | [5] -0.017 | saracatinib 0.049 | sotrastaurin 0.017 | alvocidib 0.046 | Tubastatin A -0.029 | [6] -0.015 | defactinib 0.032 | [7] 0 | encorafenib 0.059 | [8] -0.036 | alisertib -0.017 | [9] -0.008 | gefitinib 0

TNFRSF10A (UniProt O00220)
inactive: vemurafenib -0.018 | [1] 0.006 | barasertib 0.056 | [2] -0.024 | volasertib 0.003 | [3] 0.002 | [4] 0.062 | [5] -0.042 | saracatinib 0.01 | sotrastaurin -0.017 | alvocidib 0.024 | Tubastatin A 0.04 | [6] -0.052 | defactinib -0.003 | [7] -0.058 | encorafenib 0 | [8] -0.029 | alisertib -0.024 | [9] -0.007 | gefitinib 0.105

TMEM214 (UniProt Q6NUQ4)
inactive: vemurafenib 0.021 | [1] 0.004 | barasertib 0.074 | [2] 0.076 | volasertib -0.044 | [3] -0.015 | [4] 0.044 | [5] 0.012 | saracatinib 0.081 | sotrastaurin 0.004 | alvocidib 0.091 | Tubastatin A -0.052 | [6] -0.013 | defactinib 0.007 | [7] -0.035 | encorafenib 0.011 | [8] -0.184 | alisertib 0.021 | [9] 0.022 | gefitinib 0.004

TMLHE isoform 8 (UniProt Q9NVH6)
inactive: vemurafenib -0.053 | [1] 0.015 | barasertib 0.079 | [2] 0.034 | volasertib 0.043 | [3] -0.04 | [4] -0.007 | [5] 0.057 | saracatinib 0.031 | sotrastaurin 0.001 | alvocidib -0.005 | Tubastatin A 0.113 | [6] 0.036 | defactinib 0.032 | [7] 0.013 | encorafenib 0.012 | [8] -0.042 | alisertib -0.033 | [9] 0.03 | gefitinib 0.039

TPT1 (UniProt P13693)
inactive: vemurafenib 0.017 | [1] -0.012 | barasertib 0.006 | [2] 0.048 | volasertib -0.001 | [3] -0.03 | [4] 0.094 | [5] -0.008 | saracatinib -0.023 | sotrastaurin 0.029 | alvocidib 0.024 | Tubastatin A 0.015 | [6] -0.02 | defactinib 0.007 | [7] 0.026 | encorafenib -0.007 | [8] -0.055 | alisertib -0.023 | [9] -0.001 | gefitinib -0.039

TNPO1 (UniProt Q92973)
inactive: vemurafenib -0.012 | [1] 0 | barasertib -0.025 | [2] -0.008 | volasertib 0.017 | [3] 0.008 | [4] 0.078 | [5] -0.018 | saracatinib 0.014 | sotrastaurin 0.029 | alvocidib 0.103 | Tubastatin A -0.025 | [6] 0.001 | defactinib 0.005 | [7] -0.012 | encorafenib 0 | [8] 0.028 | alisertib 0.013 | [9] 0.01 | gefitinib 0.006

TOR1A (UniProt O14656)
inactive: vemurafenib 0.029 | [1] -0.009 | barasertib -0.014 | [2] -0.002 | volasertib -0.014 | [3] 0.044 | [4] -0.009 | [5] 0.018 | saracatinib 0.011 | sotrastaurin 0.004 | alvocidib -0.009 | Tubastatin A 0.045 | [6] 0.005 | defactinib 0.009 | [7] 0.004 | encorafenib 0.034 | [8] 0 | alisertib 0.036 | [9] 0.025 | gefitinib 0.007

TMEM87A (UniProt Q8NBN3)
active: [5] 0.332
inactive: vemurafenib 0.032 | [1] -0.007 | barasertib -0.025 | [2] 0.008 | volasertib -0.006 | [3] -0.026 | [4] -0.114 | saracatinib -0.001 | sotrastaurin 0.017 | alvocidib -0.076 | Tubastatin A -0.013 | [6] -0.012 | defactinib -0.006 | [7] -0.017 | encorafenib 0.022 | [8] -0.045 | alisertib -0.02 | [9] 0.015 | gefitinib 0.022

TMEM189-UBE2V1 (UniProt I3L0A0)
inactive: vemurafenib 0.056 | [1] 0.011 | barasertib 0.05 | [2] 0.024 | volasertib 0.046 | [3] -0.011 | [4] -0.033 | [5] 0.068 | saracatinib 0.021 | sotrastaurin -0.034 | alvocidib 0.002 | Tubastatin A 0.013 | [6] 0.018 | defactinib -0.03 | [7] 0.126 | encorafenib 0.035 | [8] -0.049 | alisertib -0.032 | [9] -0.002 | gefitinib 0.028

TMEM41A (UniProt Q96HV5)
inactive: vemurafenib -0.008 | [1] 0.017 | barasertib -0.019 | [2] -0.052 | volasertib 0.026 | [3] -0.023 | [4] -0.166 | [5] 0.161 | saracatinib -0.042 | sotrastaurin 0.003 | alvocidib -0.002 | Tubastatin A -0.01 | [6] -0.037 | defactinib 0.035 | [7] -0.031 | encorafenib 0.021 | [8] -0.025 | alisertib 0.036 | [9] 0.019 | gefitinib 0.033

TNPO3 (UniProt Q9Y5L0)
inactive: vemurafenib 0.024 | [1] 0.003 | barasertib 0.019 | [2] 0.009 | volasertib -0.008 | [3] 0.008 | [4] 0.005 | [5] 0.023 | saracatinib -0.001 | sotrastaurin -0.004 | alvocidib 0.003 | Tubastatin A -0.04 | [6] 0 | defactinib -0.007 | [7] -0.007 | encorafenib 0 | [8] -0.108 | alisertib -0.001 | [9] 0.023 | gefitinib -0.018

TOP3B (UniProt O95985)
inactive: vemurafenib 0.021 | [1] 0.029 | barasertib 0.01 | [2] 0.021 | volasertib -0.032 | [3] 0.025 | [4] -0.051 | [5] 0.028 | saracatinib 0.014 | sotrastaurin -0.032 | alvocidib -0.005 | Tubastatin A -0.055 | [6] 0.014 | defactinib 0.008 | [7] 0.041 | encorafenib 0.032 | [8] -0.181 | alisertib -0.023 | [9] 0.018 | gefitinib -0.019

TPR (UniProt P12270)
inactive: vemurafenib 0.003 | [1] -0.006 | barasertib -0.003 | [2] 0.068 | volasertib 0.021 | [3] -0.017 | [4] 0.089 | [5] -0.011 | saracatinib 0 | sotrastaurin 0.005 | alvocidib 0.013 | Tubastatin A 0.033 | [6] 0.003 | defactinib -0.014 | [7] 0.024 | encorafenib 0.005 | [8] -0.03 | alisertib -0.01 | [9] -0.003 | gefitinib 0.021
